Results are given in words; binding and its absence hold for the method and conditions named. Binding seen in cells or lysates may run through a third protein. Some entries that bind do so weakly or less than the wild type. Where a sequence is shown, tags or fusion partners need not be part of it.
T1: WT mTMIE-HA-Avi (mouse), Q8K467
T1 chain: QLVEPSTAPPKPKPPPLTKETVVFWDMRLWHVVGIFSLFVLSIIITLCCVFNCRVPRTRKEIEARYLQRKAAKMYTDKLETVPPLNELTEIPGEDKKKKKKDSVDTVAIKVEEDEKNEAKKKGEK

T2: C76SC77S mTMIE-HA-Avi (mouse) (UniProt Q8K467)
T2 sequence: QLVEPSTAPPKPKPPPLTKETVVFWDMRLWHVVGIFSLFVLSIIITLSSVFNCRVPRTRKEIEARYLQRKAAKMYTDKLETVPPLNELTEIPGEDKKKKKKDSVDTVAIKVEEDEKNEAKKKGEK


Tests used:
[1] = target: T1, WT mTMIE-HA-Avi (mouse), Q8K467; assay: pull-down; PK-HEK293T cells expressing Fyn-mTMC2-mCherry with WT or mutant mTMIE-HA-Avi; pull-down with NeutrAvidin beads; western blots; three experiments; conditions: remark: other sources report otherwise
[2] = target: T2, C76SC77S mTMIE-HA-Avi (mouse); assay: as above

Binder	binding [1]	binding [2]
Fyn-mTMC2-mCherry, Q8R4P4 1-888 (protein) MSPQLKSLDEEGDKSARRPTRKQTSRAACPQDGHRAQSSRKDPAKGSPRPGSSRKKQMEHGSYHKGLQGQKPRKVERSLQGRKKDRRTSLKEQRASPKKEREALRKEAGKQLRKPRSTSLGSSVSTGDSLSEEELAQILEQVEEKKKLITTVRNKPWPMAKKLRELREAQAFVEKYEGALGKGKGKHLYAYRMMMAKKWVKFKRDFDNFKTQCIPWEMKIKDIESHFGSSVASYFIFLRWMYGVNLVLFGLIFGLVIIPEVLMGMPYGSIPRKTVPRAEEERAMDFSVLWDFEGYIKYSALFYGYYNNQRTIGWLRYRLPMAYFMVGVSVFGYSLMIVIRSMASNTQGSTSEGDSDSFTFSFKMFTSWDYLIGNSETADNKYVSITTSFKESIVDEQESNKEGNIHLTRFLRVLANFLILCCLCGSGYLIYFVVKRSQEFSKMQNVSWYERNEVEIVMSLLGMFCPPLFETIAALENYHPRTGLKWQLGRIFALFLGNLYTFLLALMDDVHLKLSNEEKIKNITHWTLFNYYNSSGGNESVPRPPPHPADVPRGSCWETAVGIEFMRLTVSDMLVTYLTILVGDFLRACFVRFMNHCWCWDLEAGFPSYAEFDISGNVLGLIFNQGMIWMGSFYAPGLVGINVLRLLTSMYFQCWAVMSSNVPHERVFKASRSNNFYMGLLLLVLFLSLLPVAYTVMSLPPSFDCGPFSGKNRMYDVLHETIENDFPKFLGKIFAFLANPGLIIPAILLMFLAIYYLNSVSKSLSRANAQLRKKIQALREVEKNHKSIKGKAIVTYSEDTIKNSSKNATQIHLTKEEPTSHSSSQIQTLDKKAQGPHTSSTEGGASPSTSWHHVGSQPPRGRRDSGQPQSQTYTGRSPSGKRTQRPHN	binds	
Fyn-mTMC2-mCherry (protein, UniProt Q8R4P4 1-888) MSPQLKSLDEEGDKSARRPTRKQTSRAACPQDGHRAQSSRKDPAKGSPRPGSSRKKQMEHGSYHKGLQGQKPRKVERSLQGRKKDRRTSLKEQRASPKKEREALRKEAGKQLRKPRSTSLGSSVSTGDSLSEEELAQILEQVEEKKKLITTVRNKPWPMAKKLRELREAQAFVEKYEGALGKGKGKHLYAYRMMMAKKWVKFKRDFDNFKTQCIPWEMKIKDIESHFGSSVASYFIFLRWMYGVNLVLFGLIFGLVIIPEVLMGMPYGSIPRKTVPRAEEERAMDFSVLWDFEGYIKYSALFYGYYNNQRTIGWLRYRLPMAYFMVGVSVFGYSLMIVIRSMASNTQGSTSEGDSDSFTFSFKMFTSWDYLIGNSETADNKYVSITTSFKESIVDEQESNKEGNIHLTRFLRVLANFLILCCLCGSGYLIYFVVKRSQEFSKMQNVSWYERNEVEIVMSLLGMFCPPLFETIAALENYHPRTGLKWQLGRIFALFLGNLYTFLLALMDDVHLKLSNEEKIKNITHWTLFNYYNSSGGNESVPRPPPHPADVPRGSCWETAVGIEFMRLTVSDMLVTYLTILVGDFLRACFVRFMNHCWCWDLEAGFPSYAEFDISGNVLGLIFNQGMIWMGSFYAPGLVGINVLRLLTSMYFQCWAVMSSNVPHERVFKASRSNNFYMGLLLLVLFLSLLPVAYTVMSLPPSFDCGPFSGKNRMYDVLHETIENDFPKFLGKIFAFLANPGLIIPAILLMFLAIYYLNSVSKSLSRANAQLRKKIQALREVEKNHKSIKGKAIVTYSEDTIKNSSKNATQIHLTKEEPTSHSSSQIQTLDKKAQGPHTSSTEGGASPSTSWHHVGSQPPRGRRDSGQPQSQTYTGRSPSGKRTQRPHN		binds

Source: publication PMC11892609
